PubChem BioAssay AID1259254 | NCATS | 2017
This is one part, drawn at random, of about 59,000 deposited reagents. Of all reagents, about 1,550 (2.6%) are marked active. 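G2 share is only a proxy for re-replication; each gene was hit by three separate siRNAs, and active genes were retested.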 Not all columns of the deposit are shown. Reagent sequences are not shown. Not stated in the record: the amount of reagent.

- Test: 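Gene knock-downs that lead to re-replication, shown by excess G2 DNA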 (primary screen)
- Cell system: human HCT116 colorectal cancer cells
- Reagent: single siRNA against human genes
- Timing: 3 days
- Measured: 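Imaged Hoechst DNA stain sorts each cell into a cycle phase by DNA amount; per plate, G2 fraction set to 0% for non-targeting and 100% for GMNN siRNA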
- Direction: G2 robust z-score: higher = more G2 cells, more excess DNA replication
- Rule for the call: 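An siRNA counts as active if its G2 robust z-score lies at least 5 MADs above the screen median; here such calls match roughly 38% of GMNN control or more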

Gene,PubChem SID,G2 robust z-score,Call
RFFL,SID160755601,-0.47,inactive
RFFL,SID160755602,5.49,active
RFFL,SID160755603,-0.737,inactive
CTSG,SID160750619,0.0527,inactive
CTSG,SID160750630,-0.381,inactive
CTSG,SID160750641,-1.03,inactive
G0S2,SID160733471,0.807,inactive
G0S2,SID160739599,-0.048,inactive
G0S2,SID160739603,-0.619,inactive
CST9,SID160732451,-0.708,inactive
CST9,SID160756804,-0.85,inactive
CST9,SID160756805,-0.212,inactive
AP2S1,SID160723697,-0.772,inactive
AP2S1,SID160744011,-0.638,inactive
AP2S1,SID160744021,-0.337,inactive
GNA12,SID160771820,-1.13,inactive
GNA12,SID160771829,-0.776,inactive
GNA12,SID160771837,-0.677,inactive
FBXO6,SID160737878,-0.383,inactive
FBXO6,SID160737879,0.314,inactive
FBXO6,SID160737880,1.71,inactive
COG6,SID160733672,-0.787,inactive
COG6,SID160746147,0.692,inactive
COG6,SID160746148,-0.784,inactive
CYP11B2,SID160751922,0.494,inactive
CYP11B2,SID160751934,-1.04,inactive
CYP11B2,SID160751944,-0.194,inactive
ATF7IP,SID160744199,1.88,inactive
ATF7IP,SID160744200,0.394,inactive
ATF7IP,SID160744201,-0.00949,inactive
MTSS2,SID160754199,0.307,inactive
MTSS2,SID160754200,-0.302,inactive
MTSS2,SID160754201,3.52,inactive
HBS1L,SID160729180,-1.18,inactive
HBS1L,SID160729181,0.000865,inactive
HBS1L,SID160729182,-1.26,inactive
HIPK4,SID160758566,-1.22,inactive
HIPK4,SID160758567,-0.0353,inactive
HIPK4,SID160758568,-1.48,inactive
KRT71,SID160754737,-0.937,inactive
KRT71,SID160754738,-0.15,inactive
KRT71,SID160754739,-1.01,inactive
NMRAL1,SID160733667,0.416,inactive
NMRAL1,SID160745944,-0.137,inactive
NMRAL1,SID160745945,1.2,inactive
FAM238C,SID160725178,-0.553,inactive
FAM238C,SID160725179,5.5,active
FAM238C,SID160728004,2.77,inactive
TPX2,SID160734192,20.4,active
TPX2,SID160734200,13.7,active
TPX2,SID160734211,19.3,active
POLR3H,SID160730707,-0.921,inactive
POLR3H,SID160760532,-0.425,inactive
POLR3H,SID160760533,0.14,inactive
MTOR,SID160773206,-0.92,inactive
MTOR,SID160773295,-0.462,inactive
MTOR,SID160773386,-0.511,inactive
SH3GLB2,SID160745260,-1.17,inactive
SH3GLB2,SID160745261,-1.14,inactive
SH3GLB2,SID160745262,1.42,inactive
INVS,SID160738426,0.502,inactive
INVS,SID160738427,-0.296,inactive
INVS,SID160738428,-1.01,inactive
PYY,SID160715204,-0.782,inactive
PYY,SID160715205,0.523,inactive
PYY,SID160731575,0.112,inactive
PAK6,SID160745310,-0.804,inactive
PAK6,SID160745311,1.48,inactive
PAK6,SID160745312,1.38,inactive
